Like-named read-outs stand apart in the source and are kept apart here. These are yes or no findings as the source states them, for the method shown. In cells and extracts the contact can be indirect. For some assays here: A result given as binding can be weak or reduced; the word gives no strength.
B1: DNMT2, also known as tRNA aspartic acid methyltransferase-1 (TRDMT1) (enzyme, UniProt O55055 1-415)
chain: MEPLRVLELYSGIGGMHHALRESHIPAHVVAAIDVNTVANEVYKHNFPHTHLLSKTIEGISLEDFDKLSFNMILMSPPCQPFTRIGLQGDMTDPRTTSFLYILDILPRLQKLPKYILLENVKGFEVSSTRGLLIQTIEACGFQYQEFLLSPSSLGIPNSRLRYFLIAKLQSEPFPFQAPGQILMEFPKIVTVEPQKYAVVEESQPRVQRTGPRICAESSSTQSSGKDTILFKLETVEERDRKHQQDSDLSVQMLKDFLEDGDTDEYLLPPKLLLRYALLLDIVKPTSRRSMCFTKGYGSYIEGTGSVLQAAEDAQIENIYKSLPDLPPEEKIAKLSMLKLRYFTPKEIANLQGFPPEFGFPEKTTVKQRYRLLGNSLNVHVVAKLLTVLCEGFGNASESCHKMPLILDSNSKILS

By UniProt entry, the sequences of proteins in these tests, tags left out. Where a name states a change or a piece, a line headed by the entry shows the natural chain unless it says otherwise.
UniProt P00441: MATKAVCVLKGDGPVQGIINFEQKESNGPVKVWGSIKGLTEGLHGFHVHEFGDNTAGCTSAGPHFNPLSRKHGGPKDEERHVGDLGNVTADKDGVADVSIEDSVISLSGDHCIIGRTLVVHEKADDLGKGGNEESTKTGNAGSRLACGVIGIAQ
UniProt P13864: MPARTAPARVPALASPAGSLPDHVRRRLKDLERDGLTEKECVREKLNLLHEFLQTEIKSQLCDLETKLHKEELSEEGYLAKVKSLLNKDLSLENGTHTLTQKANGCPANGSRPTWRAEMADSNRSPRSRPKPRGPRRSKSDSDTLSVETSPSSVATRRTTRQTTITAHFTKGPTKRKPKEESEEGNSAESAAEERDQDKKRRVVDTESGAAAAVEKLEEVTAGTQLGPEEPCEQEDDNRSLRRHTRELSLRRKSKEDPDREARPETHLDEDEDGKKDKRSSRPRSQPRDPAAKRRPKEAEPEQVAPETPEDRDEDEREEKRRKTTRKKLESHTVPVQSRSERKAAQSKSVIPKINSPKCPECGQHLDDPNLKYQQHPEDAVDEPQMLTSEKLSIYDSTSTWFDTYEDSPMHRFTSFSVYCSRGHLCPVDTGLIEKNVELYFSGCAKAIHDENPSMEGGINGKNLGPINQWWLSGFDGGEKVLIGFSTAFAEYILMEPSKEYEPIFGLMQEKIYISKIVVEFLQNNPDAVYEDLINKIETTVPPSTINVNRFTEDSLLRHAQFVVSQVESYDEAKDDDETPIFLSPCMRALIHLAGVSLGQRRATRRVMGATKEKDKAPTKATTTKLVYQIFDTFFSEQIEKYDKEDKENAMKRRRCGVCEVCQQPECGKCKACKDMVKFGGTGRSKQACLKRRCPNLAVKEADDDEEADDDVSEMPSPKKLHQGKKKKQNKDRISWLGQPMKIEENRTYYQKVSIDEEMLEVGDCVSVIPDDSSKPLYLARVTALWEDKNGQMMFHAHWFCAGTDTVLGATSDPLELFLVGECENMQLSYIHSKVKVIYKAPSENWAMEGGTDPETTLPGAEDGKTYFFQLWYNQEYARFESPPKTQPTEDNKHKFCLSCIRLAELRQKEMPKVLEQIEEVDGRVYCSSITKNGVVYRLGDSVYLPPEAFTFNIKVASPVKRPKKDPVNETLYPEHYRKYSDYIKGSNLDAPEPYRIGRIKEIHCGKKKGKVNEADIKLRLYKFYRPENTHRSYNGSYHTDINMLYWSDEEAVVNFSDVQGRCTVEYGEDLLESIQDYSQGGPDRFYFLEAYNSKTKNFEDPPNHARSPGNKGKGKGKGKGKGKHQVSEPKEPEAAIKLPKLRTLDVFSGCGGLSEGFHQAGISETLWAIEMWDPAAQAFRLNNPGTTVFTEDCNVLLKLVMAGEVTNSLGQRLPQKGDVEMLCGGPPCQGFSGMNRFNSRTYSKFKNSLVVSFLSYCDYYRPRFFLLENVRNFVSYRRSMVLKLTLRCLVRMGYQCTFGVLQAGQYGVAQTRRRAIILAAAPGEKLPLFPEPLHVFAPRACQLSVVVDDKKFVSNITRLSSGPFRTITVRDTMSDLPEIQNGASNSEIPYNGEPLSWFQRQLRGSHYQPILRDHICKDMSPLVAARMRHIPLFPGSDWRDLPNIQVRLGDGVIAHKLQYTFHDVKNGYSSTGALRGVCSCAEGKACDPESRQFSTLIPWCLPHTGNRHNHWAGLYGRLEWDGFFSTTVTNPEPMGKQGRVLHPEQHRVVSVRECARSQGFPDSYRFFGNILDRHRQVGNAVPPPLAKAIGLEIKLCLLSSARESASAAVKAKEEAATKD

Tests used:
[1] = target: human superoxide dismutase-1 (hSOD1), variant not named for this experiment (human) (UniProt P00441); test: co-IP; skeletal muscle protein extract (500 µg) of hSOD1 tg mice with 5 µg human-specific hSOD1 antibody (MBL, clone 1G2), captured on agarose-conjugated protein A; SDS-PAGE and Western blot for DNMT3A, DNMT1 or DNMT2; mitochondrial-enriched fractions for DNMT3A
[2] = target: human superoxide dismutase-1 (hSOD1), variant not named for this experiment (human) (UniProt P00441); test: as above; remark: listed apart in the source

Molecule	binding [1]	binding [2]
DNA methyltransferase-1 (DNMT1) (from UniProt P13864 1-1620) (enzyme)	no binding	–
B1	–	binds weakly
